According to article PMC7977470:
Like-named read-outs stand apart in the source and are kept apart here. These are yes or no findings as the source states them, for the method shown. Binding seen in cells or lysates may run through a third protein. Some results given as binding are weak or reduced against the parent protein; the word gives no strength. One block for each molecule: values may come before it.

Amino acid sequences for entries named in this document (tags omitted).
UniProt P02340: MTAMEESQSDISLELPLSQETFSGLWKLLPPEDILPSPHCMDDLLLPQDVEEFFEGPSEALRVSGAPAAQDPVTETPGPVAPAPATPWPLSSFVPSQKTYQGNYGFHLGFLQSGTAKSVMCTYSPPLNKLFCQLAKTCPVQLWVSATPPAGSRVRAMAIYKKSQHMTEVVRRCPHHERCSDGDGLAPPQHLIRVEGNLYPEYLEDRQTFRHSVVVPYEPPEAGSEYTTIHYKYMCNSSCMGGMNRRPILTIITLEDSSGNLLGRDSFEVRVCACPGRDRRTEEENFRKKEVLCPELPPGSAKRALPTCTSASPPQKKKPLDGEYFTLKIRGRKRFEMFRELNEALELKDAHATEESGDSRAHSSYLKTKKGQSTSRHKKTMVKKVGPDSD
UniProt Q8BUN5: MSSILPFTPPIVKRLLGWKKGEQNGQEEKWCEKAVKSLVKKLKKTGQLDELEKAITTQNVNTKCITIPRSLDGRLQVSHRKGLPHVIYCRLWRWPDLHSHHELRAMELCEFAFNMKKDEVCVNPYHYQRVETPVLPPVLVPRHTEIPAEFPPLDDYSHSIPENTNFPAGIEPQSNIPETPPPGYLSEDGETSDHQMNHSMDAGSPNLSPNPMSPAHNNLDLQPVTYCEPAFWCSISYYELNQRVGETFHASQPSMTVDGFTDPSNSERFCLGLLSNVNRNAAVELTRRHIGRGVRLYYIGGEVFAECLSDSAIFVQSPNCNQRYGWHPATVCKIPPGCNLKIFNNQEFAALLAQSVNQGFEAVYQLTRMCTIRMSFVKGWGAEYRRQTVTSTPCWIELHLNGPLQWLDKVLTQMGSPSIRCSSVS
UniProt Q9NQB0: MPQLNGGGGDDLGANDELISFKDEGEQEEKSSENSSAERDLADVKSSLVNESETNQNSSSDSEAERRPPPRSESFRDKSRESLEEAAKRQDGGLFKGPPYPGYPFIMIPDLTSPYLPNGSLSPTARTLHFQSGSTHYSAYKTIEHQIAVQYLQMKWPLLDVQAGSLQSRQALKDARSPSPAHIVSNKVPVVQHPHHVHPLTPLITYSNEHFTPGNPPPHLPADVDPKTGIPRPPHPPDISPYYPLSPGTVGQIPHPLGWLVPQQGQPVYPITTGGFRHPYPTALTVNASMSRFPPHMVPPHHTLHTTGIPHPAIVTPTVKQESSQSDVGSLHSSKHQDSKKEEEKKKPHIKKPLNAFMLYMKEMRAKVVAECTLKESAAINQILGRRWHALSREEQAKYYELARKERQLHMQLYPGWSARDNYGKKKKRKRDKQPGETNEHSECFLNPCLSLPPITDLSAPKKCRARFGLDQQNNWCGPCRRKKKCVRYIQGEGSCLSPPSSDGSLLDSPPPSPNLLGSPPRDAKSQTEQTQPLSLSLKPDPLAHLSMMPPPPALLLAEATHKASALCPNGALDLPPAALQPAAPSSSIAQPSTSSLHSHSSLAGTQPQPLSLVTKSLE

Columns and labels:
[1] = target: p53 (mouse) (mouse (endogenous in mouse heart)) (UniProt P02340); assay: co-IP; heart tissue of KLK8+/+ and KLK8-/- mice, control or after 24 weeks of streptozotocin-induced diabetes, lysed in RIPA buffer with protease inhibitors and 20 mM N-ethylmaleimide; antibody 16 h at 4 °C, protein A and G sepharose beads; Western blot
[2] = target: T1, plakoglobin (human) (human (endogenous in HCAECs)) (UniProt P14923); assay: co-IP; HCAEC lysates in RIPA buffer with protease inhibitors and 20 mM N-ethylmaleimide; antibody (anti-KLK8, anti-p53 or anti-plakoglobin) 16 h at 4 °C, protein A and G sepharose beads 3 h, four washes; Western blot; IgG as control; cells untreated or treated with Ad-KLK8 (72 h), high glucose (25 mM), KLK8 siRNA or plakoglobin siRNA
T1 sequence: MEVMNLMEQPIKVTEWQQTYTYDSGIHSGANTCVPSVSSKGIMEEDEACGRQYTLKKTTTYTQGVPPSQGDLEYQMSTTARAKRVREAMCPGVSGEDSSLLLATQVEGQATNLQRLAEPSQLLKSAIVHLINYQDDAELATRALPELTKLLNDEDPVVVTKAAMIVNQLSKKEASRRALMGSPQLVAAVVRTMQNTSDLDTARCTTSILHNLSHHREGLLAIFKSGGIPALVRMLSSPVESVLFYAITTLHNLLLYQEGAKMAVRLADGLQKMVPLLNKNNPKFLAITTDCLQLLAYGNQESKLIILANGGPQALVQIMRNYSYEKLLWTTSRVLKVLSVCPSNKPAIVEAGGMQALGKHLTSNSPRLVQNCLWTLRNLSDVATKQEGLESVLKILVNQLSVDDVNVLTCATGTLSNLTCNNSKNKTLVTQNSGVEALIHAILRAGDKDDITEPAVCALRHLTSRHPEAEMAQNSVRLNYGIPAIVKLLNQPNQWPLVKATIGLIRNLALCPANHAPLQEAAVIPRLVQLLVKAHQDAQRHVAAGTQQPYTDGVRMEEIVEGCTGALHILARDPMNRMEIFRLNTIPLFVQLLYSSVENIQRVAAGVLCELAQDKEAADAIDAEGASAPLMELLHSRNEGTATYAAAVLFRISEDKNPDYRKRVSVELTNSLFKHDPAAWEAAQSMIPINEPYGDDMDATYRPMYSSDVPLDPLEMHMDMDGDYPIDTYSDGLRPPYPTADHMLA

[3] = target: T2, kallikrein-related peptidase 8 (KLK8) in human coronary artery endothelial cells (human (endogenous in HCAECs)) (UniProt O60259); assay: as above
T2 sequence: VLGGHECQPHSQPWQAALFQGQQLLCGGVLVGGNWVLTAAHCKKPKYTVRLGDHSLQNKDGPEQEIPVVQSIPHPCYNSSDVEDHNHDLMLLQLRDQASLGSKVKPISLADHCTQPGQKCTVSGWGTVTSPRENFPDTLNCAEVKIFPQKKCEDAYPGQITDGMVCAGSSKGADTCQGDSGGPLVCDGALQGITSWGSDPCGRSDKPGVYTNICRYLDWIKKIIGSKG

[4] = target: T3, kallikrein-related peptidase 8 (KLK8) in rat myocardium (not stated (in rat myocardium; species of the KLK8 transgene not told)) (UniProt O88780); assay: co-IP; rat myocardium lysed in RIPA buffer with protease inhibitors and 20 mM N-ethylmaleimide; antibody (anti-KLK8 or anti-plakoglobin) 16 h at 4 °C, protein A and G sepharose beads 3 h, four washes; Western blot; IgG as control
T3 sequence: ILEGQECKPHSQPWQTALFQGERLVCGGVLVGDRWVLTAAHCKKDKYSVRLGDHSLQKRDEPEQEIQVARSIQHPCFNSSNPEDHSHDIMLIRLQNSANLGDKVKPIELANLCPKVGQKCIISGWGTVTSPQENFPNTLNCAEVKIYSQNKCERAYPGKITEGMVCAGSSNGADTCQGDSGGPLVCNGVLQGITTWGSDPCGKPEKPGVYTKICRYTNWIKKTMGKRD

[5] = target: T4, plakoglobin (rat) (rat (endogenous in rat myocardium)) (UniProt Q6P0K8); assay: as above
T4 sequence: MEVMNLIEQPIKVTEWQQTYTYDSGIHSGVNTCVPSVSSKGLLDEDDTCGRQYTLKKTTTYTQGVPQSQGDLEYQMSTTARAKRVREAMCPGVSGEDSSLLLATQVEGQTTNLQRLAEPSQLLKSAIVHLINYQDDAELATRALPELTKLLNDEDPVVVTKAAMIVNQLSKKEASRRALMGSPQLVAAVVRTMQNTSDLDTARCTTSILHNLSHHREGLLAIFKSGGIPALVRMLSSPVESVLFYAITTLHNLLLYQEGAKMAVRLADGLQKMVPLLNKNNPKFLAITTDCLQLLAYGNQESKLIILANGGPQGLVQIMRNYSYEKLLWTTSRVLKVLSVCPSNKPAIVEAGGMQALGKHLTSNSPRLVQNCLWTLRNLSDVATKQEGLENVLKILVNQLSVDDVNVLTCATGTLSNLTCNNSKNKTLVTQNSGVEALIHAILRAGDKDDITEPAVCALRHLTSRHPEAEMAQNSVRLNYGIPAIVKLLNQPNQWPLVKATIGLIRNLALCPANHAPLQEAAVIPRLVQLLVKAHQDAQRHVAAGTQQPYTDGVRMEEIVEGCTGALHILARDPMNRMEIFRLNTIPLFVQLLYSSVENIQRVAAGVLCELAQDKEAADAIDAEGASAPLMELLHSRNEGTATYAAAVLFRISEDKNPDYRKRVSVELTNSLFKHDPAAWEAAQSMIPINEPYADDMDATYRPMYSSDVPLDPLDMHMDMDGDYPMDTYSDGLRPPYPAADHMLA

[6] = target: T1, plakoglobin (human) (human (endogenous in HCAECs)); assay: co-IP; HCAEC lysates in RIPA buffer with protease inhibitors and 20 mM N-ethylmaleimide; antibody (anti-KLK8, anti-p53 or anti-plakoglobin) 16 h at 4 °C, protein A and G sepharose beads 3 h, four washes; Western blot; IgG as control; cells untreated or treated with Ad-KLK8 (72 h), high glucose (25 mM), KLK8 siRNA or plakoglobin siRNA; remark: listed apart in the source

- binding [1]: binds
Molecule: Smad3 (mouse) (from UniProt Q8BUN5 1-425)

- binding [2]: binds
Molecule: TCF-4 (human) (from UniProt Q9NQB0 1-619)

- binding [3]: binds
B1: plakoglobin (human) (protein, UniProt P14923 1-745)
chain: MEVMNLMEQPIKVTEWQQTYTYDSGIHSGANTCVPSVSSKGIMEEDEACGRQYTLKKTTTYTQGVPPSQGDLEYQMSTTARAKRVREAMCPGVSGEDSSLLLATQVEGQATNLQRLAEPSQLLKSAIVHLINYQDDAELATRALPELTKLLNDEDPVVVTKAAMIVNQLSKKEASRRALMGSPQLVAAVVRTMQNTSDLDTARCTTSILHNLSHHREGLLAIFKSGGIPALVRMLSSPVESVLFYAITTLHNLLLYQEGAKMAVRLADGLQKMVPLLNKNNPKFLAITTDCLQLLAYGNQESKLIILANGGPQALVQIMRNYSYEKLLWTTSRVLKVLSVCPSNKPAIVEAGGMQALGKHLTSNSPRLVQNCLWTLRNLSDVATKQEGLESVLKILVNQLSVDDVNVLTCATGTLSNLTCNNSKNKTLVTQNSGVEALIHAILRAGDKDDITEPAVCALRHLTSRHPEAEMAQNSVRLNYGIPAIVKLLNQPNQWPLVKATIGLIRNLALCPANHAPLQEAAVIPRLVQLLVKAHQDAQRHVAAGTQQPYTDGVRMEEIVEGCTGALHILARDPMNRMEIFRLNTIPLFVQLLYSSVENIQRVAAGVLCELAQDKEAADAIDAEGASAPLMELLHSRNEGTATYAAAVLFRISEDKNPDYRKRVSVELTNSLFKHDPAAWEAAQSMIPINEPYGDDMDATYRPMYSSDVPLDPLEMHMDMDGDYPIDTYSDGLRPPYPTADHMLA

- binding [4]: binds
B2: plakoglobin (rat) (protein, UniProt Q6P0K8 1-745)
chain: MEVMNLIEQPIKVTEWQQTYTYDSGIHSGVNTCVPSVSSKGLLDEDDTCGRQYTLKKTTTYTQGVPQSQGDLEYQMSTTARAKRVREAMCPGVSGEDSSLLLATQVEGQTTNLQRLAEPSQLLKSAIVHLINYQDDAELATRALPELTKLLNDEDPVVVTKAAMIVNQLSKKEASRRALMGSPQLVAAVVRTMQNTSDLDTARCTTSILHNLSHHREGLLAIFKSGGIPALVRMLSSPVESVLFYAITTLHNLLLYQEGAKMAVRLADGLQKMVPLLNKNNPKFLAITTDCLQLLAYGNQESKLIILANGGPQGLVQIMRNYSYEKLLWTTSRVLKVLSVCPSNKPAIVEAGGMQALGKHLTSNSPRLVQNCLWTLRNLSDVATKQEGLENVLKILVNQLSVDDVNVLTCATGTLSNLTCNNSKNKTLVTQNSGVEALIHAILRAGDKDDITEPAVCALRHLTSRHPEAEMAQNSVRLNYGIPAIVKLLNQPNQWPLVKATIGLIRNLALCPANHAPLQEAAVIPRLVQLLVKAHQDAQRHVAAGTQQPYTDGVRMEEIVEGCTGALHILARDPMNRMEIFRLNTIPLFVQLLYSSVENIQRVAAGVLCELAQDKEAADAIDAEGASAPLMELLHSRNEGTATYAAAVLFRISEDKNPDYRKRVSVELTNSLFKHDPAAWEAAQSMIPINEPYADDMDATYRPMYSSDVPLDPLDMHMDMDGDYPMDTYSDGLRPPYPAADHMLA

- binding [3]: binds
B3: vascular endothelial (VE)-cadherin (human) (protein, UniProt P33151 48-784)
chain: DWIWNQMHIDEEKNTSLPHHVGKIKSSVSRKNAKYLLKGEYVGKVFRVDAETGDVFAIERLDRENISEYHLTAVIVDKDTGENLETPSSFTIKVHDVNDNWPVFTHRLFNASVPESSAVGTSVISVTAVDADDPTVGDHASVMYQILKGKEYFAIDNSGRIITITKSLDREKQARYEIVVEARDAQGLRGDSGTATVLVTLQDINDNFPFFTQTKYTFVVPEDTRVGTSVGSLFVEDPDEPQNRMTKYSILRGDYQDAFTIETNPAHNEGIIKPMKPLDYEYIQQYSFIVEATDPTIDLRYMSPPAGNRAQVIINITDVDEPPIFQQPFYHFQLKENQKKPLIGTVLAMDPDAARHSIGYSIRRTSDKGQFFRVTKKGDIYNEKELDREVYPWYNLTVEAKELDSTGTPTGKESIVQVHIEVLDENDNAPEFAKPYQPKVCENAVHGQLVLQISAIDKDITPRNVKFKFILNTENNFTLTDNHDNTANITVKYGQFDREHTKVHFLPVVISDNGMPSRTGTSTLTVAVCKCNEQGEFTFCEDMAAQVGVSIQAVVAILLCILTITVITLLIFLRRRLRKQARAHGKSVPEIHEQLVTYDEEGGGEMDTTSYDVSVLNSVRRGGAKPPRPALDARPSLYAQVQKPPRHAPGAHGGPGEMAAMIEVKKDEADHDGDGPPYDTLHIYGYEGSESIAESLSSLGTDSSDSDVDYDFLNDWGPRFKMLAELYGSDPREELLY

- binding [5]: binds
B4: kallikrein-related peptidase 8 (KLK8) in rat myocardium (enzyme, UniProt O88780 33-260)
chain: ILEGQECKPHSQPWQTALFQGERLVCGGVLVGDRWVLTAAHCKKDKYSVRLGDHSLQKRDEPEQEIQVARSIQHPCFNSSNPEDHSHDIMLIRLQNSANLGDKVKPIELANLCPKVGQKCIISGWGTVTSPQENFPNTLNCAEVKIYSQNKCERAYPGKITEGMVCAGSSNGADTCQGDSGGPLVCNGVLQGITTWGSDPCGKPEKPGVYTKICRYTNWIKKTMGKRD

- binding [6]: binds
B5: kallikrein-related peptidase 8 (KLK8) in human coronary artery endothelial cells (enzyme, UniProt O60259 33-260)
chain: VLGGHECQPHSQPWQAALFQGQQLLCGGVLVGGNWVLTAAHCKKPKYTVRLGDHSLQNKDGPEQEIPVVQSIPHPCYNSSDVEDHNHDLMLLQLRDQASLGSKVKPISLADHCTQPGQKCTVSGWGTVTSPRENFPDTLNCAEVKIFPQKKCEDAYPGQITDGMVCAGSSKGADTCQGDSGGPLVCDGALQGITSWGSDPCGRSDKPGVYTNICRYLDWIKKIIGSKG
